{"sequences": {"note": "The chains behind the UniProt entries cited, without tags or fusion partners. Where a name states a change or a piece, a line headed by the entry shows the natural chain unless it says otherwise.", "UniProt O00167": "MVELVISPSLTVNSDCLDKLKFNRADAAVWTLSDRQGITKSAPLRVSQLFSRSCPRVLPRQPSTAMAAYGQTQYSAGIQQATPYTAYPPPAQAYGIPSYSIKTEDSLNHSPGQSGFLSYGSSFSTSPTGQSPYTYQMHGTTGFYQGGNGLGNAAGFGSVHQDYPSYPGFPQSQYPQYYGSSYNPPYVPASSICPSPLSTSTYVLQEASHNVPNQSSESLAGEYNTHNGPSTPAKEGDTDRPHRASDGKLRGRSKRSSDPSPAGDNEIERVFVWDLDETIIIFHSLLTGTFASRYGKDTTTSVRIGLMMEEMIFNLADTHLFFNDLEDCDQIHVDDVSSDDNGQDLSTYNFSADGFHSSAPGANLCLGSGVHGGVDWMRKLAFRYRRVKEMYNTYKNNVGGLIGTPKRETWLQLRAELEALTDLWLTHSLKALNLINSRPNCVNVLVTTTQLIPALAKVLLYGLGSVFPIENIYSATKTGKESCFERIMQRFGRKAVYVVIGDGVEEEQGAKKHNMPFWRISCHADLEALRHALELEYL"}, "source": "PubChem BioAssay AID488837", "about": "(National Center for Advancing Translational Sciences (NCATS), 2010)", "note": "In all, about 330,000 compounds went through this assay and about 20 (0.006%) were called active. The inconclusive results got no clear call from the source; some entries with a clear call stand among them for comparison. Calls come from the whole dose curve; as a rule, active = well fitted inhibition curve with a large enough effect; inconclusive = small, poorly fitted or top-dose-only effect, or effect the other way; inactive = flat fitted curve, though single readings scatter. Where the call is inconclusive, the potency comes from a doubtful curve fit. % is set by controls: 0 for no effect and ±100 for the full control effect; potency is the fitted concentration of half-maximal effect."}
{"target": "Protein phosphatase EYA2 (Homo sapiens) (UniProt O00167)", "experiment": "qHTS Assay for Inhibitors of the Phosphatase Activity of Eya2", "conditions": "recombinant Eya2, OMFP fluorescence dephosphorylation (OMFP is methylfluorescein phosphate); activity, negative = inhibition: at 76.9 µM (top of the series) unless noted", "method_in_brief": "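Eya2 (0.2 uM) preincubated 10 min at ambient with compound, then OMFP substrate added at 50 uM; 10 min reaction in 50 mM HEPES pH 7.5, 50 mM NaCl, 5 uM MgCl2, 0.05% BSA, 1 mM DTT. Fluorescence read at Ex 485/Em 525 nm.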"}
{"smiles": "O=C(O)CC1(CC(=O)NCc2cccc(Cl)c2)CCCCC1", "Potency": "inconclusive: 89.1 µM [inhibitor, single point]"}
{"smiles": "CCCCCCc1nc(C(N)=O)c2[nH]c(=O)n(-c3ccc(OCC)cc3)c2n1", "Potency": "inconclusive: 22.4 µM [inhibitor, single point]"}
{"smiles": "Cc1cnc(C(=O)OCC(=O)Nc2ccccc2-c2ccccc2)cn1", "Potency": "inconclusive: 141 µM [inhibitor, partial curve]"}
{"smiles": "CCOC(=O)C1(Cc2ccccc2)CCN(Cc2cnc(N3CCOCC3)s2)CC1", "Potency": "inconclusive: 22.4 µM [inhibitor, single point]"}
{"smiles": "Cc1ccc(CCNC(=O)C2CC(c3cccc(F)c3)=NO2)cc1", "note": "(centres undefined)", "activity, negative = inhibition": "inactive: 6.78%"}
{"smiles": "CCS(=O)(=O)N1CCCC(C(=O)NC2CCCCC2)C1", "note": "(centres undefined)", "Potency": "inconclusive: 4470 µM [inhibitor, partial curve, poor fit]"}
{"smiles": "O=C1CSC(c2cccc([N+](=O)[O-])c2)N1C1CC2CCC1C2", "note": "(centres undefined)", "Potency": "inconclusive: 5010 µM [inhibitor, partial curve, poor fit]"}
{"smiles": "CCOC(=O)Cc1csc(NC(=O)C(NC(=O)C2CCCCC2)C(C)C)n1", "note": "(centres undefined)", "Potency": "inconclusive: 141 µM [inhibitor, partial curve]"}
{"smiles": "O=C(O)/C=C/C(=O)OC1CC2CCC1C2", "note": "(centres undefined)", "Potency": "inconclusive: 17.8 µM [inhibitor, single point]"}
{"smiles": "CC(c1ccccc1)N(C)C(=O)CN1CCN(S(=O)(=O)c2ccc3c(c2)OCCCO3)CC1", "note": "(centres undefined)", "Potency": "inconclusive: 100 µM [inhibitor, single point]"}
{"smiles": "COc1ccc(-c2cn3c(C)c(C(=O)NC(C)(C)C)sc3n2)cc1", "Potency": "inconclusive: 22.4 µM [inhibitor, single point]"}
{"smiles": "O=C1/C(=C/c2cccc(Br)c2)SC(=S)N1/N=C/c1cc([N+](=O)[O-])ccc1O", "Potency": "inconclusive: 398 µM [inhibitor, single point]"}
{"smiles": "CN(C)c1ccc(/C=C2\\NC(=S)N(Cc3ccccc3)C2=O)cc1", "activity, negative = inhibition": "inconclusive: 103% [activator]"}
{"smiles": "Cc1ccc(S(=O)(=O)CC(=O)c2ccc([N+](=O)[O-])cc2)cc1", "activity, negative = inhibition": "inactive: 3.64%"}
{"smiles": "O=C(O)c1cccc(N2CCCC2=O)c1", "activity, negative = inhibition": "inactive: 4.46%"}
{"smiles": "CCCN1CCc2c(sc3nc(SCC)n(-c4ccccc4)c(=O)c23)C1", "Potency": "inconclusive: 25.1 µM [inhibitor, single point]"}
{"smiles": "CCc1ccc(-c2cc(C(=O)O)c3ccccc3n2)s1", "Potency": "inconclusive: 100 µM [inhibitor, single point]"}
{"smiles": "O=C1/C(=C2/NCCN2C2CC(=O)N(c3ccccc3)C2=O)CC/C1=C\\c1ccccc1", "note": "(centres undefined)", "Potency": "inconclusive: 89.1 µM [inhibitor, single point]"}
{"smiles": "COCc1cc(C)nc(SCC[N+](C)(C)CC(=O)Nc2cccc(C(F)(F)F)c2)c1C#N", "Potency": "inconclusive: 89.1 µM [inhibitor, partial curve]"}
{"smiles": "COCCNC(=S)N/N=C(\\C)c1ccc(O)cc1", "activity, negative = inhibition": "inactive: 2.99%"}
{"smiles": "COc1ccc(NC(=O)CC2(CC(=O)O)CCCC2)cc1", "Potency": "inconclusive: 126 µM [inhibitor, single point]"}
{"smiles": "CCCCC(C(=O)NC(C)(C)C)N(Cc1ccccc1Cl)C(=O)c1snc(C(N)=O)c1N", "note": "(centres undefined)", "Potency": "inconclusive: 70.8 µM [inhibitor, single point]"}
{"smiles": "Cc1cc(Br)ccc1NC(=O)CCSc1ccccc1", "activity, negative = inhibition": "inactive: -16.5%"}
{"smiles": "COc1cccc(/C=N/Nc2cc(Cl)nc(C)n2)c1O", "activity, negative = inhibition": "inactive: 1.91%"}
{"smiles": "CC(C)c1ccc(NC(=S)NCc2ccc3c(c2)OCO3)cc1", "Potency": "inconclusive: 100 µM [inhibitor, single point]"}
{"smiles": "NC(=NC(=O)c1ccccc1)N1CCOCC1", "Potency": "inconclusive: 126 µM [inhibitor, partial curve, poor fit]"}
{"smiles": "O=C(CSc1nnnn1Cc1ccccc1)c1ccc(F)cc1", "Potency": "inconclusive: 56.2 µM [inhibitor, partial curve, poor fit]"}
{"smiles": "CCCc1cc(=O)oc2cc(C)cc(OC(C)C(=O)NCC(O)c3ccccc3)c12", "note": "(centres undefined)", "Potency": "inconclusive: 100 µM [inhibitor, single point]"}
{"smiles": "CC1=C(C(=O)Nc2ccc(CC(=O)NCc3ccc(OC(C)C)cc3)cc2)SCCO1", "activity, negative = inhibition": "inactive: 3.31%"}
{"smiles": "COc1ccccc1CC(=O)NC12CC3CC(CC(C3)C1)C2", "Potency": "inconclusive: 22.4 µM [inhibitor, single point]"}
{"smiles": "CCOC(=O)c1nnn(-c2nonc2N)c1-c1ccc(Br)cc1", "Potency": "inconclusive: 251 µM [inhibitor, partial curve]"}
{"smiles": "COc1ccccc1CNC(=O)CN1C(=O)CSc2ccc(S(=O)(=O)N3CCCC3)cc21", "activity, negative = inhibition": "inactive: 5.12%"}
{"smiles": "Cc1ccc(Nc2c(-c3ccc(N(C)C)cc3)nc3ncccn23)cc1", "Potency": "inconclusive: 89.1 µM [inhibitor, single point]"}
{"smiles": "O=C(C[n+]1cc(-c2ccccc2)n2c1CCC2)Nc1nc(-c2ccc(F)cc2)cs1", "activity, negative = inhibition": "inactive: -7.29%"}
{"smiles": "CCC(=O)N1CCN(c2ccc(NC(=O)c3ccc4ccccc4c3)cc2)CC1", "Potency": "inconclusive: 224 µM [inhibitor, partial curve]"}
{"smiles": "COc1ccccc1NCC(=O)N1CCN(S(=O)(=O)c2ccccc2)CC1", "Potency": "inconclusive: 25.1 µM [inhibitor, single point]"}
{"smiles": "O=C(CCc1ccccc1)NC(NC(=S)Nc1ccc(Cl)cc1)C(Cl)(Cl)Cl", "note": "(centres undefined)", "activity, negative = inhibition": "inactive: -21.5%"}
{"smiles": "CCc1ccc(S(=O)(=O)Nc2c(C)n(C)n(-c3ccccc3)c2=O)cc1", "Potency": "inconclusive: 20 µM [inhibitor, single point]"}
{"smiles": "CCCNC(=O)c1ccc2c(=O)c(O)c(-c3ccc(F)cc3)[nH]c2c1", "Potency": "inconclusive: 22.4 µM [inhibitor, single point]"}
{"smiles": "CCc1nnc(NC(=O)CSc2nc(C3CCCCC3)nc3ccccc23)s1", "Potency": "inconclusive: 20 µM [inhibitor, single point]"}
{"smiles": "C/C(N)=C(/C#N)C(=O)CSc1nnc(Nc2ccccc2)s1", "Potency": "inconclusive: 89.1 µM [inhibitor, single point]"}
{"smiles": "COc1ccc(-n2sc3ccc(F)cc3c2=O)cc1", "activity, negative = inhibition": "inactive: 3.27%"}
{"smiles": "COc1cc(/C=C2/SC(=S)N(CC(=O)O)C2=O)ccc1OC(=O)c1cccs1", "Potency": "inconclusive: 100 µM [inhibitor, single point]"}
{"smiles": "COc1ccc(OCc2nnc(NC(=O)Nc3ccc(F)cc3)s2)cc1", "activity, negative = inhibition": "inactive: 4.83%"}
